From paper PMC6113226
Results are given in words; binding and its absence hold for the method and conditions named. Binding seen in cells or lysates may run through a third protein. Some results given as binding are weak or reduced against the parent protein; the word gives no strength. Tags and fused reporters may be left off the sequences shown.

Protein sequences, listed by entry. Tags and fused reporters are not part of them.
UniProt P62330: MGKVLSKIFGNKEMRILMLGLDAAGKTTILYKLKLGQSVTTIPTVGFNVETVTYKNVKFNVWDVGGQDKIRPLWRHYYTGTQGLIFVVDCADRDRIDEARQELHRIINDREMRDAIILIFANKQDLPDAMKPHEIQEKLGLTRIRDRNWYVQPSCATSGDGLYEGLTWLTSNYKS

T1: TBC1d24-V5 (wild-type Xenopus TBC1d24, V5-tagged) (Xenopus) (UniProt A1A5K6)
T1 sequence: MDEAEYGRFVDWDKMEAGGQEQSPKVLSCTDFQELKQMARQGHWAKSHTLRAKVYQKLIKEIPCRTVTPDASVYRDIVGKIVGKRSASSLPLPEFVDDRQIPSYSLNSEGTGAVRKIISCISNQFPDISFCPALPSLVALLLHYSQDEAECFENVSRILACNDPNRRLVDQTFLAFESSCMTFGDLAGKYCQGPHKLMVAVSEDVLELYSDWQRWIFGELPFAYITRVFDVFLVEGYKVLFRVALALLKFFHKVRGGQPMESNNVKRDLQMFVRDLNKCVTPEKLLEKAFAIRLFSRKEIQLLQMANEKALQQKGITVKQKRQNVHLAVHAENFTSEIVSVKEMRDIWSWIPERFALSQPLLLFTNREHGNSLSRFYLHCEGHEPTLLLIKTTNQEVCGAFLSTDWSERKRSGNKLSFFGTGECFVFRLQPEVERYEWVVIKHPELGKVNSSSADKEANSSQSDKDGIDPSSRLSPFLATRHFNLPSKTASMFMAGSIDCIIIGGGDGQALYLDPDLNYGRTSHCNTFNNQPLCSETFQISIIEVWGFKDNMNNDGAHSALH

T2: Dishevelled 2 (Dsh2), HA-tagged (Xenopus) (UniProt P51142)
T2 sequence: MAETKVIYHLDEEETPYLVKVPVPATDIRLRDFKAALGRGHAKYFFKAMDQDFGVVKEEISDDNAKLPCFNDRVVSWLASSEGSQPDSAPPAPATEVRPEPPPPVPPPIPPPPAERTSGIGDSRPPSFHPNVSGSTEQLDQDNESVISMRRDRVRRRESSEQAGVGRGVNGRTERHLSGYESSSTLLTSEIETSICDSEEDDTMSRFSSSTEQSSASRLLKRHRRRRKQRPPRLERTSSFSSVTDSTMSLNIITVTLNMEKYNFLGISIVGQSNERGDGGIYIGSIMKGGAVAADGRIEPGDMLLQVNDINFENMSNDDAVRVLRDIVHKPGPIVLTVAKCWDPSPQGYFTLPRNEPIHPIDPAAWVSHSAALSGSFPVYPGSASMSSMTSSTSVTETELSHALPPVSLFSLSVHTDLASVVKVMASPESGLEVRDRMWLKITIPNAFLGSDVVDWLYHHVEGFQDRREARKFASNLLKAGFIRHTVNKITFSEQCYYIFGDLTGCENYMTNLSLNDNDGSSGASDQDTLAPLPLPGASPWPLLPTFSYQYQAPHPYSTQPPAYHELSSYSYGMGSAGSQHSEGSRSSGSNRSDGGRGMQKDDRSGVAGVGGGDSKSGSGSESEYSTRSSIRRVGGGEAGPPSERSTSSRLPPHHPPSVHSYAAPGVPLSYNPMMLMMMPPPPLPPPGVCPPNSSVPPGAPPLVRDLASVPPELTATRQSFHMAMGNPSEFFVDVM


Assays:
Assay in all cases: co-IP; lysates of Xenopus gastrula (stage 10) embryos injected with RNAs of tagged proteins; ice-cold TNSG buffer (20 mM Tris-HCl pH 7.5, 137 mM NaCl, 1% NP-40); IP 8 h, 25 embryo equivalents, anti-Flag, HA or V5-agarose; western blot; in some panels Dsh2-MO, Dsh2-MOR RNA, caFGFR or EphB-ΔC RNAs co-injected
[1] = biological target: T1, TBC1d24-V5 (wild-type Xenopus TBC1d24, V5-tagged) (Xenopus)
Arf6 = Arf6 (UniProt P62330)
[2] = biological target: T2, Dishevelled 2 (Dsh2), HA-tagged (Xenopus)

Row | binding [1] | binding (Arf6) | binding [2] | Binder
1 | binds |  |  | Dishevelled 2 (Dsh2), HA-tagged (protein, UniProt P51142 1-736) MAETKVIYHLDEEETPYLVKVPVPATDIRLRDFKAALGRGHAKYFFKAMDQDFGVVKEEISDDNAKLPCFNDRVVSWLASSEGSQPDSAPPAPATEVRPEPPPPVPPPIPPPPAERTSGIGDSRPPSFHPNVSGSTEQLDQDNESVISMRRDRVRRRESSEQAGVGRGVNGRTERHLSGYESSSTLLTSEIETSICDSEEDDTMSRFSSSTEQSSASRLLKRHRRRRKQRPPRLERTSSFSSVTDSTMSLNIITVTLNMEKYNFLGISIVGQSNERGDGGIYIGSIMKGGAVAADGRIEPGDMLLQVNDINFENMSNDDAVRVLRDIVHKPGPIVLTVAKCWDPSPQGYFTLPRNEPIHPIDPAAWVSHSAALSGSFPVYPGSASMSSMTSSTSVTETELSHALPPVSLFSLSVHTDLASVVKVMASPESGLEVRDRMWLKITIPNAFLGSDVVDWLYHHVEGFQDRREARKFASNLLKAGFIRHTVNKITFSEQCYYIFGDLTGCENYMTNLSLNDNDGSSGASDQDTLAPLPLPGASPWPLLPTFSYQYQAPHPYSTQPPAYHELSSYSYGMGSAGSQHSEGSRSSGSNRSDGGRGMQKDDRSGVAGVGGGDSKSGSGSESEYSTRSSIRRVGGGEAGPPSERSTSSRLPPHHPPSVHSYAAPGVPLSYNPMMLMMMPPPPLPPPGVCPPNSSVPPGAPPLVRDLASVPPELTATRQSFHMAMGNPSEFFVDVM
2 |  | binds weakly | binds | TBC1d24-V5 (wild-type Xenopus TBC1d24, V5-tagged) (protein, UniProt A1A5K6 1-562) MDEAEYGRFVDWDKMEAGGQEQSPKVLSCTDFQELKQMARQGHWAKSHTLRAKVYQKLIKEIPCRTVTPDASVYRDIVGKIVGKRSASSLPLPEFVDDRQIPSYSLNSEGTGAVRKIISCISNQFPDISFCPALPSLVALLLHYSQDEAECFENVSRILACNDPNRRLVDQTFLAFESSCMTFGDLAGKYCQGPHKLMVAVSEDVLELYSDWQRWIFGELPFAYITRVFDVFLVEGYKVLFRVALALLKFFHKVRGGQPMESNNVKRDLQMFVRDLNKCVTPEKLLEKAFAIRLFSRKEIQLLQMANEKALQQKGITVKQKRQNVHLAVHAENFTSEIVSVKEMRDIWSWIPERFALSQPLLLFTNREHGNSLSRFYLHCEGHEPTLLLIKTTNQEVCGAFLSTDWSERKRSGNKLSFFGTGECFVFRLQPEVERYEWVVIKHPELGKVNSSSADKEANSSQSDKDGIDPSSRLSPFLATRHFNLPSKTASMFMAGSIDCIIIGGGDGQALYLDPDLNYGRTSHCNTFNNQPLCSETFQISIIEVWGFKDNMNNDGAHSALH
3 | binds |  |  | Dsh2 construct representing only the DEP domain, HA-tagged (domain or fragment, UniProt P51142 428-502) PESGLEVRDRMWLKITIPNAFLGSDVVDWLYHHVEGFQDRREARKFASNLLKAGFIRHTVNKITFSEQCYYIFGD
